# Assay results as given in PubChem BioAssay AID1452 (National Center for Advancing Translational Sciences (NCATS), 2008).
# Amino acid sequences for entries named in this document (tags omitted).
# UniProt P18054, whole entry: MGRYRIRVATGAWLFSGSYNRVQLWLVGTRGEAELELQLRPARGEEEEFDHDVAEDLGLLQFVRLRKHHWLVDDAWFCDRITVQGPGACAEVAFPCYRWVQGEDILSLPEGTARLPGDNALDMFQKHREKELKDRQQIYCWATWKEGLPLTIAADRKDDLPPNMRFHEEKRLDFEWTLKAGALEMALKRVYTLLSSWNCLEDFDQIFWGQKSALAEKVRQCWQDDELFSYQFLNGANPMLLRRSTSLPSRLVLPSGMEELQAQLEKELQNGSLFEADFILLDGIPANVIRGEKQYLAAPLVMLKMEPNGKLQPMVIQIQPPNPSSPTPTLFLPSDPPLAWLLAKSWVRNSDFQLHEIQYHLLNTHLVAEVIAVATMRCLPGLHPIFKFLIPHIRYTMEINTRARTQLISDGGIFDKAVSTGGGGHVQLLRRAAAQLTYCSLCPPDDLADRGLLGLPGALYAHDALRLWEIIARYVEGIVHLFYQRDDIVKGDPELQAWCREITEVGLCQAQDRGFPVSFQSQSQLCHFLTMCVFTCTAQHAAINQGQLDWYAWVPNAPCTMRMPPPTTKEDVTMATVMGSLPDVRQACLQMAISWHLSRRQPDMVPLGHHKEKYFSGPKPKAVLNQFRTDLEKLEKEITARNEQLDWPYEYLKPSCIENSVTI
# Screen size: about 150,000 compounds; about 190 (0.13%) were called active. All entries are inconclusive by the source's own rule. Clear calls are listed elsewhere. Calls come from the whole dose curve; as a rule, active = well fitted inhibition curve with a large enough effect; inconclusive = small, poorly fitted or top-dose-only effect; inactive = flat fitted curve, though single readings scatter.
# Target: Polyunsaturated fatty acid lipoxygenase ALOX12 (Homo sapiens) (UniProt P18054)
# Assay: qHTS Assay for Inhibitors of 12-hLO (12-human lipoxygenase); note: nearly all actives have a fitted effect of over 55% in size
# Conditions: purified 12-hLO, xylenol orange hydroperoxide absorbance
# Excerpt: Assay Provider: Holman, T.R., University of California, Santa Cruz Screening Center PI: Austin, C.P. Screening Center: NIH Chemical Genomics Center [NCGC] Human lipoxygenase 12hLO is a member of the closely related lipoxygenase family of enzymes which catalyze the site-specific oxidation of arachidonic acid to various hormone precursor molecules and as such is a candidate for drug development in a variety of disease areas, such as cancer and inflammation. Inhibition of 12hLO activity was screened by utilizing arachidonic acid as a substrate. The extent of hydroperoxide product formation was measured by a secondary chromogenic reaction in which xylenol orange (XO, Sigma-Aldrich, cat. number 39,818-7) reacts with the ferric ions produced from the reaction between the hydroperoxide and ferrous ions. The Fe(III)-XO complex is characterized with red-shifted absorbance at 560 nm. A purified preparation of human 12hLO was supplied by Professor Ted Holman, University of California, Santa Cruz.
# Assay Protocol: Buffer: 25 mM Hepes pH 7.0, 0.01% Triton X-100. Reagents/Controls: Buffer in columns 3 and 4 as negative control (no enzyme). […] The absorbance at 405 and 573 nm were measured using ViewLux (Perkin-Elmer) High-throughput CCD imager and absorbance protocol settings. The 573-to-405 absorbance ratio was used to compute reaction progress.
# Potency is the fitted concentration of half-maximal effect.
row,Compound,Potency
1,Cc1nc2ccc3ccccc3c2o1.O=[N+]([O-])c1cc([N+](=O)[O-])c(O)c([N+](=O)[O-])c1,inconclusive: 25.1 µM
